A short description of this data set: Fog Test (VOC content, DIN 75201-B). The note with it: for VOCs content as weight loss of Test Specimen: 100° C. for 16 hours, same amount of tin (0.029 g); for VOC content: Fog Test, same amount of tin.

On to Stannous diricinoleate, for which the “VOCs content as weight loss of Test Specimen” value (from here on “VOCs content as weight loss”) came out at 9 ppm and the VOC content was 9 ppm.
As for Dimethyltin dineodecanoate, the “VOCs content as weight loss” value worked out at 37 ppm and the VOC content came out at 37 ppm.
Turning to Dimethyltin diricinoleate, the “VOCs content as weight loss” value is recorded as 12 ppm and the VOC content is reported as 12 ppm.

Source of the values: patent publication US20260226222A1, “PROCESS FOR MANUFACTURING POLYURETHANE FOAM” (Galata Chemicals, LLC, priority 2023, published 2026).
